The values below come from the supplement of paper PMC4635364.

In assay [1] the test system is ReNCell VM. Kind of assay: neuronal differentiation score (DCX+ cell fraction vs untreated, manual image score) (score (-3 to 3)); higher = more neuronal differentiation. The following applies: 2 uM, 2 weeks.
Assay [2] concerns ReNCell VM. Kind of assay: dopaminergic neuron differentiation score (TH+ cell fraction vs untreated, manual image score) (score (0 to 3)); higher = more TH+ dopaminergic neuron differentiation. To be noted: 2 uM, 4 weeks, BDNF 10 ng/ml + GDNF 10 ng/ml.

Molecules are shown by their SMILES. Structures can show the parent of a compound that is named as a salt. This is one part of the list. This data set is noisy: repeats of one test often differ as much as different tests do.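 Human fetal ventral-midbrain neural progenitor line ReNCell VM, differentiated without mitogens. Images stained for doublecortin (early neurons) or tyrosine hydroxylase (dopaminergic neurons) were scored by blinded raters against untreated wells (0 = no change). Repeats and both raters were averaged, and compounds averaging 2 or higher were picked as hits for retesting.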

In the case of `COc1cc2c3cc1Oc1c(OC)c(OC)cc4c1[C@@H](Cc1cccc(c1)Oc1ccc(c(O)c1)C[C@@H]3N(C)CC2)N(C)CC4`, the neuronal differentiation score in assay [1] (library: Spectrum) was inactive: 0. The “dopaminergic neuron differentiation score” value in assay [2] (library: Spectrum) was inactive: 0.

With `CC[C@H]1C[C@@H]2CN3CCc4c([nH]c5ccccc45)[C@](C(=O)OC)(C2)[C@H]13` [Coronaridine], in assay [1] (library: Phytochemical), the neuronal differentiation score was inactive: 0. Moreover, the “dopaminergic neuron differentiation score” value in assay [2] (library: Phytochemical) is inactive: 0.

On to `C[C@@H]1O[C@@H](O[C@H]2C[C@@H](O)[C@]3(CO)[C@H]4[C@H](O)C[C@]5(C)[C@@H](C6=CC(=O)OC6)CC[C@]5(O)[C@@H]4CC[C@]3(O)C2)[C@H](O)[C@H](O)[C@H]1O`, for which the neuronal differentiation score in assay [1] (library: Spectrum) is inactive: 0. Besides, in assay [2] (library: Spectrum), the “dopaminergic neuron differentiation score” value was inactive: 0.

As to `COc1cc2c(cc1O)C(CCc1ccc(Cl)cc1)N(C)CC2` (configuration not stated), in assay [1] (library: Tocriscreen), the neuronal differentiation score is inactive: 0. Moreover, the “dopaminergic neuron differentiation score” value in assay [2] (library: Tocriscreen) is inactive: 0.

As for `C/C=C1\C[C@@H](C)[C@](O)(CO)C(=O)OCC2=CCN3CC[C@@H](OC1=O)[C@@H]23` [Retrorsine], the neuronal differentiation score in assay [1] (library: Phytochemical) is inactive: 0. Besides, the “dopaminergic neuron differentiation score” value in assay [2] (library: Phytochemical) is inactive: 0.

For `COP(=O)(OC)OC=C(Cl)Cl`, the neuronal differentiation score in assay [1] (library: Spectrum) is inactive: 0. In assay [2] (library: Spectrum), the “dopaminergic neuron differentiation score” value is inactive: 0.

Take `C#CCOC(=O)C1=CCCN(C)C1` [Arecaidine propargyl ester hydrobromide]: the neuronal differentiation score in assay [1] (library: LOPAC) is inactive: 0. Besides, in assay [2] (library: LOPAC), the “dopaminergic neuron differentiation score” value is inactive: 0.

Take `O=C(O)c1ccc2[nH]cc(CCCCN3CC=C(c4ccccc4)CC3)c2c1` [Carmoxirole hydrochloride]: in assay [1] (library: Tocriscreen), the neuronal differentiation score is inactive: 0. Besides, the “dopaminergic neuron differentiation score” value in assay [2] (library: Tocriscreen) was inactive: 0.

With `COC(C)(C)CCC[C@H](C)C/C=C/C(C)=C/C(=O)OC(C)C`, in assay [1] (library: Spectrum), the neuronal differentiation score is inactive: 0. Further, the “dopaminergic neuron differentiation score” value in assay [2] (library: Spectrum) is inactive: 1.

`COc1cc2c3cc1Oc1cc(ccc1O)C[C@@H]1c4c(cc(OC)c(O)c4Oc4cccc(c4)C[C@@H]3N(C)CC2)CC[N+]1(C)C` [Tubocurarine chloride pentahydrate (+)]: in assay [1] (library: Phytochemical), the neuronal differentiation score was inactive: 0. Further, in assay [2] (library: Phytochemical), the “dopaminergic neuron differentiation score” value was inactive: 0.

`CN1[C@@H]2CC[C@H]1C[C@@H](OC1c3ccccc3CCc3ccccc31)C2` [Deptropine citrate]: the neuronal differentiation score in assay [1] (library: Prestwick) was inactive: 0. In addition, in assay [2] (library: Prestwick), the “dopaminergic neuron differentiation score” value was inactive: 0.

Take `CNC(=O)Oc1ccc2c(c1)[C@]1(C)CCN(C)[C@@H]1N2C` [(-)-Physostigmine]: the neuronal differentiation score in assay [1] (library: LOPAC) was inactive: 0. Moreover, the “dopaminergic neuron differentiation score” value in assay [2] (library: LOPAC) is inactive: 0.

As to `COc1cc([C@@H]2c3cc4c(cc3[C@H](OC(C)=O)[C@H]3COC(=O)[C@H]23)OCO4)cc(OC)c1OC`, the neuronal differentiation score in assay [1] (library: Spectrum) is inactive: 0. Besides, in assay [2] (library: Spectrum), the “dopaminergic neuron differentiation score” value was inactive: 0.

On to `COc1cc([C@@H]2c3cc4c(cc3[C@@H](O)[C@H]3COC(=O)[C@H]23)OCO4)cc(OC)c1O`, for which the neuronal differentiation score in assay [1] (library: Spectrum) is inactive: 0. Moreover, the “dopaminergic neuron differentiation score” value in assay [2] (library: Spectrum) was inactive: 0.

Take `CC(=O)O[C@H]1[C@H]2[C@@H](OC(=O)Cc3ccccc3)[C@@H](C)C[C@]2(OC(C)=O)C(=O)/C(C)=C/[C@@H]2[C@H](CC[C@@]13CO3)C2(C)C` [euphorbiasteroid]: the neuronal differentiation score in assay [1] (library: Natural) was inactive: 0. In addition, the “dopaminergic neuron differentiation score” value in assay [2] (library: Natural) was inactive: 0.

Turning to `Cc1onc(O)c1C[C@H](N)C(=O)O`, the neuronal differentiation score in assay [1] (library: Tocriscreen) was inactive: 0. For the same compound, the “dopaminergic neuron differentiation score” value in assay [2] (library: Tocriscreen) was inactive: 0.

In the case of `CCCN1CCO[C@@H]2c3cc(O)ccc3OC[C@H]21`, in assay [1] (library: Tocriscreen), the neuronal differentiation score is inactive: 0. Besides, the “dopaminergic neuron differentiation score” value in assay [2] (library: Tocriscreen) was inactive: 0.

On to `O=[N+]([O-])OCC(CO[N+](=O)[O-])O[N+](=O)[O-]`, for which the neuronal differentiation score in assay [1] (library: Spectrum) was inactive: 0. For the same compound, the “dopaminergic neuron differentiation score” value in assay [2] (library: Spectrum) was inactive: 0.

As to `CN1CCc2cc(O)cc3c2[C@H]1Cc1ccc(O)c(O)c1-3` [R(-)-2,10,11-Trihydroxyaporphine hybrobromide], the neuronal differentiation score in assay [1] (library: LOPAC) is inactive: -1. The “dopaminergic neuron differentiation score” value in assay [2] (library: LOPAC) is inactive: 0.

Consider `O=C(O)c1nn(Cc2ccc(Cl)cc2Cl)c2ccccc12`, for which the neuronal differentiation score in assay [1] (library: Spectrum) is inactive: 0. Besides, the “dopaminergic neuron differentiation score” value in assay [2] (library: Spectrum) was inactive: 0.

For the compound `C[C@]12CC[C@H](O)C[C@@H]1CC[C@@H]1[C@@H]2CC[C@]2(C)C(=O)CC[C@@H]12`, the neuronal differentiation score in assay [1] (library: Spectrum) is inactive: 0. In assay [2] (library: Spectrum), the “dopaminergic neuron differentiation score” value is inactive: 0.

With `CC(=O)O[C@H]1C[C@@H](OC(C)=O)C(C)(C)C2C[C@@H](OC(C)=O)[C@]3(C)C(CC[C@@]4(C)[C@H](c5ccoc5)C(=O)[C@H]5O[C@]543)[C@]21C` (some centres not stated), the neuronal differentiation score in assay [1] (library: Spectrum) is inactive: 0. In assay [2] (library: Spectrum), the “dopaminergic neuron differentiation score” value was inactive: 1.

Turning to `CC1(C)C(=O)[C@@H]2O[C@@H]2[C@@]2(C)C1C[C@@H](O)[C@]1(C)C2CC[C@@]2(C)[C@H](c3ccoc3)OC(=O)C3OC321` (stereo partly drawn) [1,2alpha-EPOXYDEACETOXYDIHYDROGEDUNIN], the neuronal differentiation score in assay [1] (library: Spectrum) was inactive: 0. In addition, the “dopaminergic neuron differentiation score” value in assay [2] (library: Spectrum) was inactive: 0.

Regarding `C=CCN1CC[C@]2(C)c3cc(O)ccc3C[C@H]1C2C` (single isomer, unassigned; (+)), the neuronal differentiation score in assay [1] (library: Tocriscreen) is inactive: 0. The “dopaminergic neuron differentiation score” value in assay [2] (library: Tocriscreen) was inactive: 0.

For the compound `C[N+](C)(C)CCCCCCCCCC[N+](C)(C)C`, in assay [1] (library: Spectrum), the neuronal differentiation score was inactive: 0. In assay [2] (library: Spectrum), the “dopaminergic neuron differentiation score” value was inactive: 0.

In the case of `O=c1c2ccccc2[se]n1-c1ccccc1`, the neuronal differentiation score in assay [1] (library: Spectrum) was inactive: 0. The “dopaminergic neuron differentiation score” value in assay [2] (library: Spectrum) is inactive: 0.

Turning to `CCOP(=S)(OCC)Oc1nc(Cl)c(Cl)cc1Cl`, in assay [1] (library: Spectrum), the neuronal differentiation score is inactive: 0. The “dopaminergic neuron differentiation score” value in assay [2] (library: Spectrum) is inactive: 1.

Take `NCC(O)c1ccc(O)cc1` (configuration not stated): the neuronal differentiation score in assay [1] (library: Spectrum) was inactive: 0. Further, the “dopaminergic neuron differentiation score” value in assay [2] (library: Spectrum) was inactive: 0.

As to `N#Cc1nn(-c2c(Cl)cc(C(F)(F)F)cc2Cl)c(N)c1[S+]([O-])C(F)(F)F` (configuration not stated), the neuronal differentiation score in assay [1] (library: Spectrum) is inactive: 0. Moreover, in assay [2] (library: Spectrum), the “dopaminergic neuron differentiation score” value was inactive: 0.

For the compound `CCOC(=O)CC(SP(=S)(OC)OC)C(=O)OCC` (configuration not stated), in assay [1] (library: Spectrum), the neuronal differentiation score is inactive: 0. Also, the “dopaminergic neuron differentiation score” value in assay [2] (library: Spectrum) was inactive: 0.

Consider `C=C1C[C@@H]2[C@H](CC[C@]3(C)C(=O)CC[C@@H]23)[C@@]2(C)C=CC(=O)C=C12`, for which, in assay [1] (library: Spectrum), the neuronal differentiation score was inactive: 0. Further, in assay [2] (library: Spectrum), the “dopaminergic neuron differentiation score” value is inactive: 0.

On to `CNC(C)(C)Cc1ccccc1`, for which, in assay [1] (library: Spectrum), the neuronal differentiation score is inactive: 0. Further, the “dopaminergic neuron differentiation score” value in assay [2] (library: Spectrum) is inactive: 0.

On to `CN1CCN(C(=O)OC2c3nccnc3C(=O)N2c2ccc(Cl)cn2)CC1` (configuration not stated) [Zopiclone], for which the neuronal differentiation score in assay [1] (library: Prestwick) is inactive: 0. Also, in assay [2] (library: Prestwick), the “dopaminergic neuron differentiation score” value was inactive: 0.

In the case of `NNC(N)=O` [Semicarbazide hydrochloride], the neuronal differentiation score in assay [1] (library: LOPAC) is inactive: 0. In assay [2] (library: LOPAC), the “dopaminergic neuron differentiation score” value is inactive: 0.

Consider `O=P1(N(CCCl)CCCl)NCCCO1` (configuration not stated), for which the neuronal differentiation score in assay [1] (library: Spectrum) was inactive: 1. Further, the “dopaminergic neuron differentiation score” value in assay [2] (library: Spectrum) was inactive: 0.

In the case of `c1ccc2nc(N3CCNCC3)ccc2c1` [Quipazine dimaleate salt], the neuronal differentiation score in assay [1] (library: Prestwick) is inactive: 0. In addition, in assay [2] (library: Prestwick), the “dopaminergic neuron differentiation score” value was inactive: 0.

As for `C[N+]1(C)CCc2cc3c(cc2[C@H]1[C@@H]1OC(=O)c2c1ccc1c2OCO1)OCO3` [(-)-Bicuculline methochloride], the neuronal differentiation score in assay [1] (library: Tocriscreen) is inactive: 0. In addition, the “dopaminergic neuron differentiation score” value in assay [2] (library: Tocriscreen) is inactive: 0.

Regarding `C#C[C@]1(O)CC[C@H]2[C@@H]3CCC4=CC(=O)CCC4=C3C=C[C@@]21CC` [Gestrinone], the neuronal differentiation score in assay [1] (library: Prestwick) was inactive: 0. The “dopaminergic neuron differentiation score” value in assay [2] (library: Prestwick) is inactive: 0.

In the case of `C[N+]1(C)CCOC(O)(c2ccc(-c3ccc(C4(O)C[N+](C)(C)CCO4)cc3)cc2)C1` (configuration not stated) [Hemicholinium bromide], the neuronal differentiation score in assay [1] (library: Prestwick) is inactive: 0. Also, the “dopaminergic neuron differentiation score” value in assay [2] (library: Prestwick) was inactive: 0.

With `CC(C)CC(N(C)C)C1(c2ccc(Cl)cc2)CCC1` (configuration not stated), in assay [1] (library: Spectrum), the neuronal differentiation score was inactive: 0. The “dopaminergic neuron differentiation score” value in assay [2] (library: Spectrum) is inactive: 0.

Regarding `CC1=C2[C@H]3OC(=O)[C@@H](C)[C@@H]3CC[C@@]2(C)C=CC1=O`, the neuronal differentiation score in assay [1] (library: Spectrum) is inactive: 0. Besides, the “dopaminergic neuron differentiation score” value in assay [2] (library: Spectrum) was inactive: 0.
